These results are taken from article PMC9398005.

Sequences of proteins named here, by UniProt entry; tags and fusion partners are left off. Residues count along the entry.
UniProt P31266, whole entry E89G: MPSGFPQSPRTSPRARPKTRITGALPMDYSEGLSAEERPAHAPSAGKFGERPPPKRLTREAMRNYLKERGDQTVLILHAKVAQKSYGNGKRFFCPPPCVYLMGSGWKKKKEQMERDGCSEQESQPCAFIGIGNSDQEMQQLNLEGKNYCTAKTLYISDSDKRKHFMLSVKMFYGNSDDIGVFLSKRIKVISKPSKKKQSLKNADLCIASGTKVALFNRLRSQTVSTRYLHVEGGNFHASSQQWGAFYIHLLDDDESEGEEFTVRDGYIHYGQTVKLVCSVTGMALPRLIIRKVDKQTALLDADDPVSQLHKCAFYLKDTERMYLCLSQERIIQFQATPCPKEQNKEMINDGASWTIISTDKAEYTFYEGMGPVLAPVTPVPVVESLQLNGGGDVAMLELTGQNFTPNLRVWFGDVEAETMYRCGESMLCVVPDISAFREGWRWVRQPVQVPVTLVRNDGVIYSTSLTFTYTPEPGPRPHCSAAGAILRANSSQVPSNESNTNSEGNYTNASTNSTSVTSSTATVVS
UniProt P31266, whole entry K195E: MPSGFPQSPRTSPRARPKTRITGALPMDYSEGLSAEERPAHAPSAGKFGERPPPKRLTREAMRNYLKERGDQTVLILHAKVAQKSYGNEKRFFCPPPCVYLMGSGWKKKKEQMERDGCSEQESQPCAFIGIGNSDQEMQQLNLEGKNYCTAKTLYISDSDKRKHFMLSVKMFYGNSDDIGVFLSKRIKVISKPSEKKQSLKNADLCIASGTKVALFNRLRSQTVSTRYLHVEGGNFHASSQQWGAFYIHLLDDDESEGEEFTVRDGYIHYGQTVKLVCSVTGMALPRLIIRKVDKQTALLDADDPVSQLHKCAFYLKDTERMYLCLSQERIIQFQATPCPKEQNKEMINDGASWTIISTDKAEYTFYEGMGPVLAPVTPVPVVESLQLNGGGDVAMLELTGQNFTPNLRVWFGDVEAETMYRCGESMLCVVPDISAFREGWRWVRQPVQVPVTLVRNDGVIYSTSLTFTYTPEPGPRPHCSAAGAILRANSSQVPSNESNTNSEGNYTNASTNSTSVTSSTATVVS
UniProt P31266, 53-474 E89G: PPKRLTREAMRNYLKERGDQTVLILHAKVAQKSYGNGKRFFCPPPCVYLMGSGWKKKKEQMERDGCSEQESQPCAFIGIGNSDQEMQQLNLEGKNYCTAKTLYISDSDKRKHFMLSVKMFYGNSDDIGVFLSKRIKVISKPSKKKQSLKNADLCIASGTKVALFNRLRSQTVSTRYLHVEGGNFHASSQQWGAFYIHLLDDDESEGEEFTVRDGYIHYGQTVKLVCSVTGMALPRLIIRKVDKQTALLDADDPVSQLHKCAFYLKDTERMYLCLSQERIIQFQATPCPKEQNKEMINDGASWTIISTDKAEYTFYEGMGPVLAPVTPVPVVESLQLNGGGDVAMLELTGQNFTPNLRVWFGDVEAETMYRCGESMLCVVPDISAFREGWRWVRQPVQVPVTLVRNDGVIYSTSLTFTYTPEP
UniProt P31266, 53-474 K195E: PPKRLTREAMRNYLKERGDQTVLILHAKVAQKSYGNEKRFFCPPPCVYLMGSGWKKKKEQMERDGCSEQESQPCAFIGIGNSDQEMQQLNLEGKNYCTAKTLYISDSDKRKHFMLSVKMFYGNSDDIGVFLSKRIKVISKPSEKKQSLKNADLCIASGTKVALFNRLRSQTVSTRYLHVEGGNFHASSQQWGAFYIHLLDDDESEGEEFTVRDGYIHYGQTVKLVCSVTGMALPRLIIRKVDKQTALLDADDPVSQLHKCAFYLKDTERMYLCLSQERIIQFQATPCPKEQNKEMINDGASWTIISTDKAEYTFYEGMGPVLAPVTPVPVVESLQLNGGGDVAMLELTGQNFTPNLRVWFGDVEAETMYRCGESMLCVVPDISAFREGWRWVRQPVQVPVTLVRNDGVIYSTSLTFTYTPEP

Weaker means in comparison with the reference protein, sequence or condition of that experiment. For some of these results: The exact form of at least one protein or probe is not confirmed.

What all share (assay): EMSA
For orientation: In EMSA bound probe runs differently from free probe, usually more slowly.

Data set [1] has as its target Flag-Rbpj E89G full length (mouse) (UniProt P31266). As to conditions: poly(dI-dC); EMSA purified: 3.4 nM probe, 10 min room temperature; protein translated in vitro; protein details: Flag; label: 32P.
Data set [2] addresses Flag-Rbpj K195E full length (mouse) (UniProt P31266). The note with it: poly(dI-dC); EMSA purified: 3.4 nM probe, 10 min room temperature; protein translated in vitro; protein details: Flag; label: 32P.
Data set [3] has as its target Rbpj E89G (mouse) (UniProt P31266). As to conditions: EMSA purified: 3.4 nM probe, 10 min room temperature; recombinant protein; residues 53-474; protein details: GST removed by PreScission (pGEX-6P1); label: IRDye-700 at 5' end of strand 2.
The target of data set [4] is Rbpj K195E (mouse) (UniProt P31266). The note with it: EMSA purified: 3.4 nM probe, 10 min room temperature; recombinant protein; residues 53-474; protein details: GST removed by PreScission (pGEX-6P1); label: IRDye-700 at 5' end of strand 2.

In the case of “CCTGGAACTATTTTCCCACGGTGCCCTTCCGCCCATTTTCCCACGAGTCG / CTCGCGACTCGTGGGAAAATGGGCGGAAGGGCACCGTGGGAAAATAGTTC [EMSA probe with 2 RBPJ sites]”, the binding result in data set [1] and in data set [2] was “binds more weakly” each time.

As to “CGAACGAGGCAAACCTAGGCTAGAGGCACCGTGGGAAACTAGTGCGGGCGTGGCT (double strand) [EMSA high affinity CSL probe]”, the binding result in data set [3] and in data set [4] was “binds more weakly” in each case.
